Where two headings read alike, the source gives them in different places. The structures given here were assigned with low confidence; some may be wrong.
Molecular target: cloned human CRF1 receptors (Homo sapiens, UniProt P34998)
Test: CRF1 receptor binding assay (inhibition of 125I-ovine-CRF binding to membranes of 293EBNA cells transfected with hCRFR1)
Conditions: read-out: IC50 Range* (potency of binding to CRF1 receptor)

Sequences of proteins named here, by UniProt entry; tags and fusion partners are left off. Residues count along the entry.
UniProt P34998, 24-415 limits assumed: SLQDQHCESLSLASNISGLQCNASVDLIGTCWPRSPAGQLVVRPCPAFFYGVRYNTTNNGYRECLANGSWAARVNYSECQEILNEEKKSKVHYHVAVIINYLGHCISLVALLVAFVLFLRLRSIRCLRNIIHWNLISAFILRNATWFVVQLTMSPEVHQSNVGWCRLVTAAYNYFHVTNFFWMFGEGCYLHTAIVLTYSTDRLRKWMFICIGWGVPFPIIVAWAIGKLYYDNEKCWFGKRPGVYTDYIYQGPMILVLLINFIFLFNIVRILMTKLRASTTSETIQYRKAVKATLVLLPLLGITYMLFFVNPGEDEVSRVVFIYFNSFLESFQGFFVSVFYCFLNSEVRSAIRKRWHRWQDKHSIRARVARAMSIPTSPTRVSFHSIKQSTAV

Row | IC50 (IC50 ranges, class symbols a-e) [µM] | IC50 (IC50 ranges as class symbols a-e) [µM] | SMILES
1 | 0.01 to 0.1 | – | CCC(COC)n1c(=O)c(C)nc2c(-c3ccc(OC)cc3Cl)ncnc21 (centres unmarked)
2 | – | 0.001 to 0.01 | Cc1nc2c(-c3cc(F)c(N(C)C)cc3Cl)ccnc2n(C(C)C2CCC2)c1=O (centres unmarked)
